Results from the supplement of paper PMC3334620.
In all, about 33,000 sequences were measured (“E-score (-0.5 to 0.5)”: median about -0.0059, highest 2% from about 0.26 on). Some of the results follow.

What follows are sequences tested against T1, Cin5 (UniProt P40917) (assay: PBM E-score (8-mer binding enrichment) (E-score (-0.5 to 0.5)); higher = stronger / more preferred TF binding). Settings: protein concentration: 100 nM; construct: GST-full length.
T1 sequence: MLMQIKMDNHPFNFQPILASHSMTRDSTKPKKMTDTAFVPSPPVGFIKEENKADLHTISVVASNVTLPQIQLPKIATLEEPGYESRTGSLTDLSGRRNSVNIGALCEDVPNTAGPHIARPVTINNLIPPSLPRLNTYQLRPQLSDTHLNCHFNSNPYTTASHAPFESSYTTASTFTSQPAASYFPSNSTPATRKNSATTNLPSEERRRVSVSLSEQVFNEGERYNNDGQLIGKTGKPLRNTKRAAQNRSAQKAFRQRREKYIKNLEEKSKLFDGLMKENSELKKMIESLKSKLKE
How it was run: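 GST-tagged yeast TFs (full-length or DNA-binding domain) were made by PURExpress in vitro transcription/translation and applied at about 100-200 nM to universal all-10-mer Agilent arrays. The arrays were made double-stranded by primer extension, on fresh or once-stripped slides. Bound protein was detected with fluorescent anti-GST, and scans were normalised with masliner. Each ungapped eight-base word, pooled with its reverse complement, received an E-score (modified Wilcoxon-Mann-Whitney statistic) from the Universal PBM Analysis Suite.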

In order of rising “PBM E-score” value:
1. CTAGCGGC  -0.329
2. AGACTCCC  -0.324
3. CCTCGCCG  -0.322
4. CCCCCATA  -0.314
5. CAGTCCAG  -0.311
6. AGGCTGCC  -0.293
7. ACTGGACC  -0.291
8. AAGGCTCG  -0.281
9. AGCCTCTC  -0.275
10. GTCCGCCA  -0.249
11. CTCGGTTC  -0.237
12. CCTGCGAC  -0.233
13. ACCACGCT  -0.223
14. AGTCGTCG  -0.221
15. AGCCAGGG  -0.218
16. GCTCCCAA  -0.213
17. CAAGGGTA  -0.208
18. ACGACCCT  -0.196
19. CGGAGAGC  -0.194
20. CTCTCCAC  -0.188
21. CCCTTCGG  -0.18
22. AAAGGCGT  -0.174
23. CGCCGGCC  -0.174
24. GGCCACAC  -0.169
25. AGCCTTCG  -0.168
26. AGCTAGCA  -0.168
27. AGGTCGGG  -0.166
28. CGGGCCAG  -0.157
29. ACGTGGCT  -0.152
30. GCCCGTTA  -0.134
31. CACAGGCG  -0.13
32. GACCCCAA  -0.127
33. GCAGTAGA  -0.124
34. ACAGCTCA  -0.124
35. GATACGCC  -0.122
36. CTAAGTGC  -0.119
37. TGCAAGCA  -0.118
38. CCATAGGG  -0.105
39. ATCTAGGC  -0.105
40. CGTCTTTC  -0.104
41. AACGCCTT  -0.104
42. CAGCAGCG  -0.103
43. AGTAGGCC  -0.101
44. GCAGAAGC  -0.101
45. ACGCGTAC  -0.101
46. CACCTCTG  -0.0984
47. TTGCTAAA  -0.0962
48. AGAGGGTG  -0.0942
49. GACGCTCA  -0.0931
50. CGGCGTTA  -0.0879
51. TGCACCAA  -0.0858
52. AGACTCCT  -0.0844
53. TCGTTGCA  -0.0774
54. ACATCGCA  -0.0772
55. AAACGTGA  -0.0765
56. ACGGGCGC  -0.0765
57. CAGGCAGA  -0.0752
58. CGTGAAAG  -0.0748
59. CAGTGTGG  -0.0748
60. GCCGCGTA  -0.071
61. AATGCTTG  -0.0706
62. ACCAGCTA  -0.0702
63. ATATGGCC  -0.0701
64. GTCTGCGA  -0.0683
65. GCCCCTAA  -0.0658
66. CTGTGTCA  -0.0655
67. GCAGATGC  -0.0639
68. ATCGTTAC  -0.0627
69. AACACACG  -0.0605
70. ACTACCGC  -0.0496
71. CGACGAAC  -0.0436
72. ACGTTTCT  -0.0432
73. CATTTCAG  -0.0429
74. ACGCTTCG  -0.0426
75. GCTCGCCA  -0.0372
76. AACTGGTC  -0.0358
77. GCCGCAGA  -0.0338
78. AAGCAAAG  -0.0332
79. GGCCCAAA  -0.0329
80. CATCAGGC  -0.0323
81. GCCCGAGC  -0.0307
82. CCACACCG  -0.03
83. ACTGGATG  -0.0293
84. ATGAGGGA  -0.0286
85. CAGCCTAC  -0.0257
86. CATACACC  -0.0238
87. AGCTAAAT  -0.0194
88. CTCTACGC  -0.0188
89. CGCATTAG  -0.0118
90. AGCACGTA  -0.00897
91. CGTGCGAG  -0.00325
92. AATCCAAC  -0.00257
93. GAATGTGC  -0.00204
94. ACGAGGTG  -0.00102
95. CAACCTGC  0.00016
96. ACTGCCCA  0.0013
97. ACTTTCTG  0.00156
98. AGAGTGCT  0.00224
99. GTAGCTAA  0.0101
100. GCTTCGTA  0.011
101. GCCTCAAA  0.0112
102. TGCCTCAA  0.015
103. AACGTTGA  0.0171
104. GAAGCGAC  0.019
105. CATGCCTC  0.02
106. CACTCCAC  0.0209
107. ATAGGTTG  0.0216
108. AGATGTTG  0.0226
109. AATGCAGT  0.026
110. AACCAAGG  0.0313
111. GGAAACAC  0.0343
112. CAGCGCAA  0.0372
113. CGGGCGTC  0.0379
114. ATATGCTG  0.0407
115. CAACCACG  0.0486
116. CAAGTATC  0.0508
117. AGAGTTGC  0.0538
118. GCAAGGCA  0.0569
119. AAAGTCAG  0.0619
120. ACAATGTA  0.0632
121. ATCGTGGA  0.0643
122. ATTGCCTC  0.0665
123. CCATGTGC  0.0668
124. AGCAGTTG  0.0675
125. AAGACATG  0.0683
126. ATTTGGCC  0.0721
127. CGAGGATA  0.0758
128. CCTATTAC  0.0787
129. AGATGCCC  0.087
130. CTTGGGGC  0.0896
131. AGGTGGTA  0.0927
132. AAGCGCTA  0.0932
133. TATGTTCA  0.0974
134. CAGCTCAA  0.098
135. TACGTAGA  0.102
136. CTTACGAC  0.103
137. ACAGTTAT  0.106
138. AAGCGTAT  0.106
139. CGCGGGCA  0.108
140. CAAACTGC  0.111
141. AGATGATC  0.119
142. CATGCTCA  0.12
143. AAGCCAAT  0.122
144. ATAAAATC  0.122
145. ATGCGCAA  0.128
146. ACATTGTA  0.128
147. ATCATGAA  0.133
148. AGTCACTA  0.137
149. AAGCCTAT  0.138
150. AGTTTAAA  0.138
151. ACCGCGGC  0.139
152. ATTATCCC  0.151
153. AAAACAAG  0.16
154. CAAGATGC  0.163
155. AATTAACT  0.165
156. AGATAAAC  0.166
157. CGCGATCA  0.172
158. GAAAACTA  0.178
159. GCGAATGA  0.19
160. ACTGGTAA  0.191
161. TCACGAAA  0.194
162. GAGAGTAA  0.195
163. CGATTGTA  0.196
164. TAACAAAA  0.198
165. AAGTATTC  0.203
166. GGTTATAA  0.228
167. CGCTTATA  0.246
168. CGTCATTC  0.252
169. CTCGATTA  0.264
170. GCAATACA  0.274
171. TCACATAA  0.31
172. ATCATAAT  0.327
